Experimental data published in PubChem BioAssay AID186 (DTP/NCI, 2004).
Values are animals surviving of animals treated; these mice carried no tumour. Survivors were counted at the toxicity check, usually on the fifth day, unless a day is given; later deaths do not show. Schedule codes are those of the source, read here as Q, the interval in days (D) or hours (H), X, the number of doses. Some doses were run more than once; the results are listed from low to high.

Tested on: B6D2F1 mice, nontumored toxicity test, survival
Assay: NCI In Vivo Anticancer Drug Screen. Data for tumor model Nontumored Animals (Toxicity Test) in B6D2F1 (BDF1) mice

CC(=O)NNC(=O)c1ccccn1
survivor count (dose: 4.0 mg/kg/injection, schedule: Q03HX024 (ip), vehicle: saline): 8 of 8 | survivor count (dose: 8.0 mg/kg/injection, schedule: Q03HX008 (ip), vehicle: saline): 8 of 8 | survivor count (dose: 8.0 mg/kg/injection, schedule: Q03HX016 (ip), vehicle: saline): 8 of 8 | survivor count (dose: 8.0 mg/kg/injection, schedule: Q03HX024 (ip), vehicle: saline): 8 of 8 | survivor count (dose: 16.0 mg/kg/injection, schedule: Q01DX012 (ip), vehicle: other): 6 of 6 | survivor count (dose: 16.0 mg/kg/injection, schedule: Q03HX008 (ip), vehicle: saline): 8 of 8 | survivor count (dose: 16.0 mg/kg/injection, schedule: Q03HX016 (ip), vehicle: saline): 8 of 8 | survivor count (dose: 16.0 mg/kg/injection, schedule: Q03HX024 (ip), vehicle: saline): 8 of 8 | survivor count (dose: 32.0 mg/kg/injection, schedule: Q01DX009 (ip), vehicle: saline): 8 of 8 | survivor count (dose: 32.0 mg/kg/injection, schedule: Q01DX009 (oral), vehicle: saline): 7 of 8 | survivor count (dose: 32.0 mg/kg/injection, schedule: Q01DX012 (ip), vehicle: other): 6 of 6 | survivor count (dose: 32.0 mg/kg/injection, schedule: Q03HX008 (ip), vehicle: saline): 8 of 8 | survivor count (dose: 32.0 mg/kg/injection, schedule: Q03HX016 (ip), vehicle: saline): 8 of 8 | survivor count (dose: 32.0 mg/kg/injection, schedule: Q03HX024 (ip), vehicle: saline): 8 of 8 | survivor count (dose: 32.0 mg/kg/injection, schedule: Q04DX003 (ip), vehicle: saline): 8 of 8 | survivor count (dose: 64.0 mg/kg/injection, schedule: Q01DX001 (ip), vehicle: saline): 8 of 8 | survivor count (dose: 64.0 mg/kg/injection, schedule: Q01DX001 (oral), vehicle: saline): 7 of 8 | survivor count (dose: 64.0 mg/kg/injection, schedule: Q01DX009 (ip), vehicle: saline): 8 of 8 | survivor count (dose: 64.0 mg/kg/injection, schedule: Q01DX009 (oral), vehicle: saline): 8 of 8 | survivor count (dose: 64.0 mg/kg/injection, schedule: Q01DX012 (ip), vehicle: other): 6 of 6 | survivor count (dose: 64.0 mg/kg/injection, schedule: Q03HX008 (ip), vehicle: saline): 8 of 8 | survivor count (dose: 64.0 mg/kg/injection, schedule: Q03HX016 (ip), vehicle: saline): 8 of 8 | survivor count (dose: 64.0 mg/kg/injection, schedule: Q03HX024 (ip), vehicle: saline): 8 of 8 | survivor count (dose: 64.0 mg/kg/injection, schedule: Q04DX003 (ip), vehicle: saline): 8 of 8 | survivor count (dose: 64.0 mg/kg/injection, schedule: Q08DX002 (ip), vehicle: saline): 8 of 8 | survivor count (dose: 128.0 mg/kg/injection, schedule: Q01DX001 (ip), vehicle: saline): 8 of 8 | survivor count (dose: 128.0 mg/kg/injection, schedule: Q01DX001 (oral), vehicle: saline): 8 of 8 | survivor count (dose: 128.0 mg/kg/injection, schedule: Q01DX009 (ip), vehicle: saline): 8 of 8 | survivor count (dose: 128.0 mg/kg/injection, schedule: Q01DX009 (oral), vehicle: saline): 7 of 8 | survivor count (dose: 128.0 mg/kg/injection, schedule: Q01DX012 (ip), vehicle: other): 5 of 6 | survivor count (dose: 128.0 mg/kg/injection, schedule: Q04DX003 (ip), vehicle: saline): 8 of 8 | survivor count (dose: 128.0 mg/kg/injection, schedule: Q08DX002 (ip), vehicle: saline): 8 of 8 | survivor count (dose: 256.0 mg/kg/injection, schedule: Q01DX001 (ip), vehicle: saline): 8 of 8 | survivor count (dose: 256.0 mg/kg/injection, schedule: Q01DX001 (oral), vehicle: saline): 8 of 8 | survivor count (dose: 256.0 mg/kg/injection, schedule: Q01DX009 (ip), vehicle: saline): 4 of 8 | survivor count (dose: 256.0 mg/kg/injection, schedule: Q01DX009 (oral), vehicle: saline): 7 of 8 | survivor count (dose: 256.0 mg/kg/injection, schedule: Q04DX003 (ip), vehicle: saline): 8 of 8 | survivor count (dose: 256.0 mg/kg/injection, schedule: Q08DX002 (ip), vehicle: saline): 8 of 8 | survivor count (dose: 512.0 mg/kg/injection, schedule: Q01DX001 (ip), vehicle: saline): 0 of 8 | survivor count (dose: 512.0 mg/kg/injection, schedule: Q01DX001 (oral), vehicle: saline): 0 of 8 | survivor count (dose: 512.0 mg/kg/injection, schedule: Q01DX009 (oral), vehicle: saline): 0 of 8 | survivor count (dose: 512.0 mg/kg/injection, schedule: Q04DX003 (ip), vehicle: saline): 0 of 8 | survivor count (dose: 512.0 mg/kg/injection, schedule: Q08DX002 (ip), vehicle: saline): 0 of 8 | survivor count (dose: 1024.0 mg/kg/injection, schedule: Q01DX001 (oral), vehicle: saline): 0 of 8

S=P(N1CC1)(N1CC1)N1CC1
survivor count (dose: 7.5 mg/kg/injection, schedule: Q01DX001 (ip), vehicle: saline): 10 of 10 | survivor count (dose: 11.0 mg/kg/injection, schedule: Q01DX001 (ip), vehicle: saline): 10 of 10 | survivor count (dose: 17.0 mg/kg/injection, schedule: Q01DX001 (ip), vehicle: saline): 10 of 10

[Cl][Pt+2][Cl].[NH-]C1CCCC1.[NH-]C1CCCC1
survivor count (dose: 10.0 mg/kg/injection, schedule: Q01DX009 (ip), vehicle: Klucel (hydroxypropylcellulose) (HPC)): 8 of 8 | survivor count (dose: 20.0 mg/kg/injection, schedule: Q01DX009 (ip), vehicle: Klucel (hydroxypropylcellulose) (HPC)): 8 of 8 | survivor count (dose: 40.0 mg/kg/injection, schedule: Q01DX009 (ip), vehicle: Klucel (hydroxypropylcellulose) (HPC)): 7 of 8 | survivor count (dose: 40.0 mg/kg/injection, schedule: Q04DX003 (ip), vehicle: Klucel (hydroxypropylcellulose) (HPC)): 8 of 8 | survivor count (dose: 80.0 mg/kg/injection, schedule: Q01DX001 (ip), vehicle: Klucel (hydroxypropylcellulose) (HPC)): 8 of 8 | survivor count (dose: 80.0 mg/kg/injection, schedule: Q01DX009 (ip), vehicle: Klucel (hydroxypropylcellulose) (HPC)): 8 of 8 | survivor count (dose: 80.0 mg/kg/injection, schedule: Q04DX003 (ip), vehicle: Klucel (hydroxypropylcellulose) (HPC)): 8 of 8 | survivor count (dose: 160.0 mg/kg/injection, schedule: Q01DX001 (ip), vehicle: Klucel (hydroxypropylcellulose) (HPC)): 8 of 8 | survivor count (dose: 160.0 mg/kg/injection, schedule: Q01DX009 (ip), vehicle: Klucel (hydroxypropylcellulose) (HPC)): 8 of 8 | survivor count (dose: 160.0 mg/kg/injection, schedule: Q04DX003 (ip), vehicle: Klucel (hydroxypropylcellulose) (HPC)): 8 of 8 | survivor count (dose: 320.0 mg/kg/injection, schedule: Q01DX001 (ip), vehicle: Klucel (hydroxypropylcellulose) (HPC)): 8 of 8 | survivor count (dose: 320.0 mg/kg/injection, schedule: Q04DX003 (ip), vehicle: Klucel (hydroxypropylcellulose) (HPC)): 8 of 8 | survivor count (dose: 640.0 mg/kg/injection, schedule: Q01DX001 (ip), vehicle: Klucel (hydroxypropylcellulose) (HPC)): 8 of 8 | survivor count (dose: 640.0 mg/kg/injection, schedule: Q04DX003 (ip), vehicle: Klucel (hydroxypropylcellulose) (HPC)): 8 of 8 | survivor count (dose: 1280.0 mg/kg/injection, schedule: Q01DX001 (ip), vehicle: Klucel (hydroxypropylcellulose) (HPC)): 8 of 8

Nc1ncnc2c1ncn2C1OC(COP(=O)(O)O)C(O)C1O (centres undefined)
survivor count (dose: 20.0 mg/kg/injection, schedule: Q01DX009 (ip), vehicle: water): 10 of 10 | survivor count (dose: 40.0 mg/kg/injection, schedule: Q01DX009 (ip), vehicle: water): 10 of 10 | survivor count (dose: 80.0 mg/kg/injection, schedule: Q01DX009 (ip), vehicle: water): 10 of 10 | survivor count (dose: 160.0 mg/kg/injection, schedule: Q01DX009 (ip), vehicle: water): 10 of 10 | survivor count (dose: 320.0 mg/kg/injection, schedule: Q01DX009 (ip), vehicle: water): 10 of 10

CO[C@@]12[C@H](COC(N)=O)C3=C(C(=O)C(C)=C(N)C3=O)N1C[C@@H]1N[C@@H]12
survivor count (dose: 0.5 mg/kg/injection, schedule: Q04DX003 (ip), vehicle: saline): 4 of 4 | survivor count (dose: 0.9 mg/kg/injection, schedule: Q01DX010 (ip), vehicle: saline): 4 of 4 | survivor count (dose: 1.0 mg/kg/injection, schedule: Q04DX003 (ip), vehicle: saline): 4 of 4 | survivor count (dose: 1.5 mg/kg/injection, schedule: Q01DX010 (ip), vehicle: saline): 4 of 4 | survivor count (dose: 2.0 mg/kg/injection, schedule: Q04DX003 (ip), vehicle: saline): 4 of 4 | survivor count (dose: 4.0 mg/kg/injection, schedule: Q04DX003 (ip), vehicle: saline): 4 of 4

O=P1(NCCCl)OCCCN1CCCl (centres undefined)
survivor count (dose: 39.0 mg/kg/injection, schedule: Q01DX015 (ip), vehicle: water): 6 of 6 | survivor count (dose: 65.0 mg/kg/injection, schedule: Q01DX015 (ip), vehicle: water): 6 of 6 | survivor count (dose: 108.0 mg/kg/injection, schedule: Q01DX015 (ip), vehicle: water): 6 of 6 | survivor count (dose: 108.0 mg/kg/injection, schedule: Q07DX003 (ip), vehicle: water): 6 of 6 | survivor count (dose: 180.0 mg/kg/injection, schedule: Q01DX001 (ip), vehicle: saline): 6 of 6 | survivor count (dose: 180.0 mg/kg/injection, schedule: Q01DX001 (ip), vehicle: water): 6 of 6 and 8 of 8 | survivor count (dose: 180.0 mg/kg/injection, schedule: Q01DX015 (ip), vehicle: water): 6 of 6 | survivor count (dose: 180.0 mg/kg/injection, schedule: Q07DX003 (ip), vehicle: water): 6 of 6 | survivor count (dose: 256.0 mg/kg/injection, schedule: Q01DX001 (sc), vehicle: water): 6 of 6 | survivor count (dose: 300.0 mg/kg/injection, schedule: Q01DX001 (ip), vehicle: saline): 6 of 6 | survivor count (dose: 300.0 mg/kg/injection, schedule: Q01DX001 (ip), vehicle: water): 6 of 6 and 8 of 8 | survivor count (dose: 300.0 mg/kg/injection, schedule: Q07DX003 (ip), vehicle: water): 6 of 6 | survivor count (dose: 320.0 mg/kg/injection, schedule: Q01DX001 (sc), vehicle: water): 6 of 6 | survivor count (dose: 400.0 mg/kg/injection, schedule: Q01DX001 (sc), vehicle: water): 6 of 6 | survivor count (dose: 500.0 mg/kg/injection, schedule: Q01DX001 (ip), vehicle: saline): 2 of 6 | survivor count (dose: 500.0 mg/kg/injection, schedule: Q01DX001 (ip), vehicle: water): 0 of 8, 4 of 8, 6 of 6 | survivor count (dose: 500.0 mg/kg/injection, schedule: Q01DX001 (sc), vehicle: water): 6 of 6 | survivor count (dose: 500.0 mg/kg/injection, schedule: Q07DX003 (ip), vehicle: water): 6 of 6 | survivor count (dose: 625.0 mg/kg/injection, schedule: Q01DX001 (sc), vehicle: water): 2 of 6 | survivor count (dose: 833.0 mg/kg/injection, schedule: Q01DX001 (ip), vehicle: saline): 2 of 6 | survivor count (dose: 833.0 mg/kg/injection, schedule: Q01DX001 (ip), vehicle: water): 0 of 8, 1 of 8, 1 of 6, 2 of 8
